Results: US20180369203A1, “METHODS OF TREATING CANCER BY ADMINISTERING A MEK INHIBITOR IN COMBINATION WITH A PROTEASOME INHIBITOR” (The Jackson Laboratory, priority 2015, published 2018)
For at least one compound, name, drawing or mass did not settle the structure.

Tests used:
Aβ1-42 peptides = assay: In vitro amyloid seeding of Aβ1-42 with lysates of treated A2058 cells (ThT binding, TEM); type: cell-based, human
Protocol: FIGS. 5A-Y show MEK and proteasome inhibition provoke protein aggregation and amyloidogenesis. (A-B) WM115 cells treated with 20 nM AZD6244, 100 nM Bortezomib, or both for 24 hr were stained with Lys48-specific ubiquitin antibodies. Arrowheads mark ubiquitin-positive aggregates. Scale bar: 10 μm. Amounts of aggregates per cell were quantitated using ImageJ (median, n≥100, ANOVA). (C-F) Following transfection with polyQ79 plasmids alone or with both polyQ79 and HSF1^S326D plasmids for one day, HEK293T cells were treated with inhibitors as described in (A-B). Cells were either analyzed for aggregate size or stained with 10 μM ThT. (G) Treated tumor cell lines were stained with 10 μM ThT. Geometric means were used to calculate fold changes in ThT fluorescence intensity and the log 2(FC) values were presented as a heat map. […] Following treatments, AOs were quantitated by ELISA using A11 antibodies (mean±SD, n=3, ANOVA). (I) Intrinsic AOs were detected in human tumor cell lines (mean±SD, n=3, ANOVA). […] Amyloids were quantitated by ELISA (mean±SD, n=3, Student's t-test). […] AF formation was monitored by ThT binding (mean±SD, n=3, ANOVA). […] Amyloids were quantitated (mean±SD, n=3, Student's t-test). […] Viable cells were quantitated by CellTiter® blue (mean±SD, n=6, Student's t-test). […] Viable cells were quantitated (mean±SD, n=6, ANOVA). […]
This figure is related to FIG. 5. […] (C) Quantitation of protein aggregate size. […]

HSF1 Ser326 = HSF1 Ser326 phosphorylation by immunoblotting in HEK293T cells; type: cell-based; conditions: overnight, 20 μM U0126, 20 nM AZD6244, 1 μM FR180204 or 100 nM Sch772984
Protocol: This figure is related to FIG. 3. (A) Validation of phospho-HSF1 Ser326 antibodies. […] (B) MEK blockade impairs HSF1 Ser326 phosphorylation. […] (D-E) S326A mutation impairs HSF1 nuclear translocation. […] (F) Acute MEK depletion diminishes HSF1 proteins. […] HSF1 proteins were detected by immunoblotting. (G) ERK-mediated HSF1 Ser307 phosphorylation depends on MEK. […] Levels of phosphor-HSF1 Ser307 were measured by immunoblotting. (H) HSF1 Ser326 phosphorylation inhibits Ser307 phosphorylation.

**Q.** How did the “amyloid seeding efficacy of cell lysates” value (Aβ1-42 peptides; 20 μM Aβ1-42, ThT binding) turn out when Cn1cnc2c(F)c(Nc3ccc(Br)cc3Cl)c(C(=O)NOCCO)cc21 [AZD6244, selumetinib] was run?
**A.** augmented

**Q.** What about the “fibril morphology after seeding (transmission electron microscopy)” value (Aβ1-42 peptides; 37° C., 2 days) of the same compound?
**A.** a dense lattice of fiber-like structures emerged

**Q.** What about the “HSF1 Ser326 phosphorylation” value (HSF1 Ser326) of the same compound?
**A.** impairs
